{
  "source": "patent US20220276234A1",
  "about": "“POINT-OF-CARE IMMUNOASSAY FOR QUANTITATIVE SMALL ANALYTE DETECTION” (priority 2011, published 2022)",
  "key": {"[1]": {"test_system": "THC.5B7 (B7) anti-THC antibody in complex with 11-hydroxy-THC (HTHC)", "test": "ELONA", "conditions": "purified recombinant protein, protein details: Bioventix, single-stranded DNA"}, "[2]": {"test_system": "THC.5B7 (B7) anti-THC antibody in complex with 11-hydroxy-THC (HTHC)", "test": "binding assay", "conditions": "purified recombinant protein, protein details: Bioventix, immunocomplex with HTHC, single-stranded DNA"}, "[3]": {"test_system": "THC.5B7 (B7) anti-THC antibody in complex with THC", "test": "binding assay", "conditions": "minimal binding to B7-THC complex by qPCR; purified recombinant protein; protein details: Bioventix, immunocomplex with THC; single-stranded DNA"}, "[4]": {"test_system": "THC.5B7 (B7) anti-THC antibody, no analyte", "test": "binding assay", "conditions": "minimal binding by qPCR; residual background binding to antibody alone; purified recombinant protein; protein details: Bioventix; single-stranded DNA"}, "[5]": {"test_system": "THC2.B9 (B9) anti-THC antibody (with or without HTHC)", "test": "binding assay", "conditions": "aptamer stated to differentiate B7 from the similar antibody bound to HTHC; purified recombinant protein; protein details: Bioventix; single-stranded DNA"}, "[6]": {"conditions": "group statement: nearly all aptamers detect immunocomplex at ug/mL HTHC, label: 5' biotin, variant of B7C4 (B7HC4)"}},
  "note": "The exact form of at least one protein or probe is not confirmed. For some of these results: The comparison behind a weaker result is the experiment's own reference, which may not be listed here.",
  "data": [
    {"sequence": "CCTGTCAGTTGCTTACCGGCCACGAGTACGAGACTGCAGGATTCTTCTACACTGCCCCCCATGTAGTGTCCTTGCTCGT [732]", "values": [
      {"measurement": "binding result", "setting": "[1]; [6]", "result": "binds"}
    ]},
    {"sequence": "CCTGTCAGTTGCTTACCGGCCCAGGTGTAGTAACTGCAGGGATTCTTAACGTAGCTACCGGGTGTAGTGTCCTTGCTCGT [154]", "values": [
      {"measurement": "binding result", "setting": "[1]; group statement: nearly all aptamers detect immunocomplex at ug/mL HTHC, label: 5' biotin", "result": "binds"}
    ]},
    {"sequence": "CCTGTCAGTTGCTTACCGGCCCAGGTGTAGTAACTGCAGGGATTCTTAACGTAGCTACCGGGTGTAGTGTCCTTGCTCGT [B7C1 (B7HC1)]", "values": [
      {"measurement": "binding result", "setting": "[2]; capillary electrophoresis peak shift, not well separated from bulk DNA", "result": "binds"}
    ]},
    {"sequence": "CCTGTCAGTTGCTTACCGGGCACGAGTACGAGACTGCAGGATTCTTCTACACTGCACCCCATGTAGTGTCCTTGCTC [493]", "values": [
      {"measurement": "binding result", "setting": "[1]; better sensitivity in simultaneous than separate incubation, immunocomplex with HTHC, label: 5' …, variant of B7C4 (B7HC4)", "result": "binds"}
    ]},
    {"sequence": "CCTGTCAGTTGCTTACCGGGCACGAGTACGAGACTGCAGGATTCTTCTACACTGCCCCACATGTAGTGTCCTTGCTCGT [550]", "values": [
      {"measurement": "binding result", "setting": "[1]; [6]", "result": "binds"}
    ]},
    {"sequence": "CCTGTCAGTTGCTTACCGGGCACGAGTACGAGACTGCAGGATTCTTCTACACTGCCCCCCATGTAGTGTCCTTGCTCGT [368 (B7C4)]", "values": [
      {"measurement": "binding result", "setting": "[1]; [6]", "result": "binds"}
    ]},
    {"sequence": "CCTGTCAGTTGCTTACCGGGCACGAGTACGAGACTGCAGGATTCTTCTACACTGCCCCCCATGTAGTGTCCTTGCTCGT [B7C4 (B7HC4)]", "values": [
      {"measurement": "binding result", "setting": "[2]; immobilised immune complex, bound aptamer quantified by qPCR", "result": "binds"},
      {"measurement": "binding result", "setting": "[3]", "result": "binds more weakly"},
      {"measurement": "binding result", "setting": "[4]", "result": "binds more weakly"},
      {"measurement": "binding result", "setting": "[5]", "result": "binds more weakly"}
    ]},
    {"sequence": "CCTGTCAGTTGCTTACCGGGCACGAGTACGAGACTGCAGGATTCTTCTACACTGCCCCCCATGTAGTGTCCTTGCTCGTGTAGTGTCCTTGCTCGT [333]", "values": [
      {"measurement": "binding result", "setting": "[1]; [6]", "result": "binds"}
    ]},
    {"sequence": "CCTGTCAGTTGCTTACCGGGCACGAGTACGAGACTGCAGGATTCTTCTACACTGCGCCCCATGTAGTGTCCTTGCTCGT [444]", "values": [
      {"measurement": "binding result", "setting": "[1]; high sensitivity in separate incubation, reduced in simultaneous, immunocomplex with HTHC, label: 5' biotin, variant of B7C4 (B7HC4)", "result": "binds"}
    ]},
    {"sequence": "CCTGTCAGTTGCTTACCGGGCACGAGTACGAGACTGCAGGATTCTTCTACACTGCTCCCCATGTAGTGTCCTTGCTCGT [368.2]", "values": [
      {"measurement": "binding result", "setting": "[1]; significant binding in both separate and simultaneous incubation, immunocomplex with HTHC, label: 5' biotin, variant of B7C4 (B7HC4)", "result": "binds"}
    ]},
    {"sequence": "CCTGTCAGTTGCTTACCGGGCACGAGTACGAGACTGCAGGATTCTTCTACACTGGCCCCCATGTAGTGTCCTTGCTCGT [489]", "values": [
      {"measurement": "binding result", "setting": "[1]; [6]", "result": "binds"}
    ]},
    {"sequence": "CCTGTCAGTTGCTTACCGGGCACGAGTACGAGACTGCAGGATTCTTTTACACTGCCCCCCATGTAGTGTCCTTGCTCGT [568]", "values": [
      {"measurement": "binding result", "setting": "[1]; [6]", "result": "binds"}
    ]},
    {"sequence": "CCTGTCAGTTGCTTACCGGGCACGAGTACTAGACTGCAGGATTCTTCTACACTGCCCCCCATGTAGTGTCCTTGCTCGT [815]", "values": [
      {"measurement": "binding result", "setting": "[1]; high binding in separate incubation, lost in simultaneous, immunocomplex with HTHC, label: 5' biotin, variant of B7C4 (B7HC4)", "result": "binds"}
    ]}
  ]
}
